# No constants are given. Whether binding was seen depends on the method and setting. In cells and extracts the contact can be indirect. Some binding calls cover weakened binding; strength is not graded here.
# By UniProt entry, the sequences of proteins in these tests, tags left out. Where a name states a change or a piece, a line headed by the entry shows the natural chain unless it says otherwise. Chains listed by the source or under a name are the forms on record and can include a tag or linker. Residues count along the entry.
# UniProt P35869, residues 11-848: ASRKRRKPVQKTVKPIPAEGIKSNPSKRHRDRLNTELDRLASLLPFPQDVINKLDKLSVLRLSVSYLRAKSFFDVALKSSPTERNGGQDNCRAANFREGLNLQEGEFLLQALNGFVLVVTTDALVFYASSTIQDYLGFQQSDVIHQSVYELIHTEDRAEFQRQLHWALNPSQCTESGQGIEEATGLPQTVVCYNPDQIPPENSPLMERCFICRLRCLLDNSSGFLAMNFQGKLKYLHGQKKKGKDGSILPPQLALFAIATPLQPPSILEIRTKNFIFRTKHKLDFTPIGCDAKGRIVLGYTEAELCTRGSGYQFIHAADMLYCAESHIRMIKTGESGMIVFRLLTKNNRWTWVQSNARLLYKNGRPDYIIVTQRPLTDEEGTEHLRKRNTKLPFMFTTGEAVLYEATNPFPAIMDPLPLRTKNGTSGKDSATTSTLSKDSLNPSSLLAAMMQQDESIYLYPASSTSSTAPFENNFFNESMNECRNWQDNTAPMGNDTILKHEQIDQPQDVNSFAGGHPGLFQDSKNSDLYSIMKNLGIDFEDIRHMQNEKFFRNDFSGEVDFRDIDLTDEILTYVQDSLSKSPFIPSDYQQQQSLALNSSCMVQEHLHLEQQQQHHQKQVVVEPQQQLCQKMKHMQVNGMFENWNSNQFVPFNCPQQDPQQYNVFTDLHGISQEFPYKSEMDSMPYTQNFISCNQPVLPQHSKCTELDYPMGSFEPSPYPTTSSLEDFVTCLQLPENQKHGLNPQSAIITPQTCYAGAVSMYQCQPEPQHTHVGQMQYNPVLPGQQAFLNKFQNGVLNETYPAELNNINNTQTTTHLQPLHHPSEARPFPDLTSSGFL
# retinoic acid receptor–related orphan nuclear receptor-γt (ROR-γt) (P51449-2, form named): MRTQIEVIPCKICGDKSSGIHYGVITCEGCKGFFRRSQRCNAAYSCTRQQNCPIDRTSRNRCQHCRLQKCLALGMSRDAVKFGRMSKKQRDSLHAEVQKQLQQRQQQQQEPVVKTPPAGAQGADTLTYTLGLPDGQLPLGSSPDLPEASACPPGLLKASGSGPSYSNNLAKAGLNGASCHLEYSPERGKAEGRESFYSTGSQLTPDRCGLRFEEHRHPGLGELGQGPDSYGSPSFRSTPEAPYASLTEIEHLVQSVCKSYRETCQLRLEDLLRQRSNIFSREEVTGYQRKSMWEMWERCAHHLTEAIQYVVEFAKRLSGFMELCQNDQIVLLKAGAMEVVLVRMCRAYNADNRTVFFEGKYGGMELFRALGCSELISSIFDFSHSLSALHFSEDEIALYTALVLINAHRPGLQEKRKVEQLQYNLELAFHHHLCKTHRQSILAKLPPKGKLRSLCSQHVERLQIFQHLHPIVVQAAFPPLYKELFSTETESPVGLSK
# What was measured:
# [1] = biological target: aryl hydrocarbon receptor (AhR) (human (endogenous in peripheral blood T cells)) (UniProt P35869); assay: proximity ligation; in situ PLA (Duolink), anti-AhR plus anti-ROR-γt or anti-phosphorylated ROR-γt (Ser-489) antibodies; unstimulated peripheral blood T cells freshly isolated from patients with SLE or RA; confocal microscopy
# [2] = biological target: aryl hydrocarbon receptor (AhR) (human (endogenous in peripheral blood T cells)) (UniProt P35869); assay: proximity ligation; in situ PLA (Duolink), anti-AhR plus anti-ROR-γt antibodies; unstimulated peripheral blood T cells freshly isolated from healthy controls; confocal microscopy
Substance,binding [1],binding [2]
phosphorylated ROR-γt (Ser-489) (from UniProt P51449-2 1-497),binds,
retinoic acid receptor–related orphan nuclear receptor-γt (ROR-γt) (from UniProt P51449-2 1-497),binds,no binding (condition: T cells from healthy controls)

# Source: article PMC6766655, “AhR–ROR-γt complex is a therapeutic target for MAP4K3/GLK^highIL-17A^high subpopulation of systemic lupus erythematosus” (The FASEB Journal, 2019)
